Reference: PubChem BioAssay AID493014 (National Center for Advancing Translational Sciences (NCATS), 2011)
This is one part of the list. These are further read-outs of the screen, such as a control signal, another cell line or another target. No call is given for them. Most of these compounds were active or inconclusive in the main read-out, so they are no random draw. The note in brackets gives the kind of curve behind each potency; many fits are weak.

Test: qHTS Assay to Find Inhibitors of Chronic Active B-Cell Receptor Signaling
Settings: ABC-DLBCL IkBa-CBG/CBR reporter, luminescence ratio (green luciferase fused to IkBa over red control in TMD8 lymphoma cells), 4 h
In short: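 Concentration-response series (up to 46 uM) were applied to TMD8 dual-reporter cells for 4 h at 37C with doxycycline. Green/red ratio, after filter-overlap correction, defined %Activity; red signal alone was normalised to basal cells and zero luminescence.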

[1] = measured here: CBR red luminescence, cell number
[2] = measured here: IkBa-CBG green luminescence

| SMILES | AC50 [1] | AC50 [2] |
| --- | --- | --- |
| CN(C)c1ccc(N=Nc2cccc(F)c2)cc1 | 0.224 µM [rising, full curve, poor fit] | – |
| O=C(Nc1ccc(Cn2cccn2)cc1)c1ccc(COc2ccccc2Br)cc1 | 20 µM [falling, single point] | – |
| COc1ccc(Nc2nc(-c3ccccc3)nc3ccccc23)c(OC)c1 | 3.16 µM [rising, full curve, poor fit] | – |
| CC(C)c1ccc(C(O)Cc2nc3ccccc3n2C)cc1 (stereo not drawn) | 10 µM [rising, partial curve] | – |
| C=CCn1c(CNc2ccc(C)cc2)nnc1SCC(=O)N/N=C/c1ccc(O)cc1O | 22.4 µM [falling, single point] | – |
| Cc1ccc(-n2c(=S)[nH]c3c(oc4ccccc43)c2=O)cc1 | 23.1 µM [falling, single point] | – |
| CCOC(=O)C(C(=O)OCC)C1N=C(N)N=C2Oc3ccccc3N21 (stereo not drawn) | 1.03 µM [falling, full curve, poor fit] | – |
| O=C(Nc1ccc2oc(=O)ccc2c1)c1cc2ccccc2o1 | 7.31 µM [falling, partial curve, poor fit] | – |
| CCOC(=O)c1c(C)[nH]c(C)c1C(=O)CN1C(=O)NC2(CCCCCC2)C1=O | 25.9 µM [falling, partial curve, poor fit] | – |
| Cc1ccc(Cn2nnc3c(=O)[nH]c(C4CCN(C(=O)c5cccs5)CC4)nc32)cc1 | 3.66 µM [rising, single point] | – |
| Cc1ccc2c(CN(C)Cc3cccc(F)c3)cc(=O)oc2c1C | 0.562 µM [rising, partial curve] | – |
| Cn1c(=NC(=O)COc2ccccc2)sc2cccc(F)c21 | 0.251 µM [rising, full curve, poor fit] | – |
| O=C(CSc1nnnn1C1CC2C=CC1C2)Nc1ccc(C(=O)O)cc1 (stereo not drawn) | 20.6 µM [rising, partial curve, poor fit] | – |
| O=C(N/N=C/c1cn(Cc2cccc(F)c2)c2ccccc12)c1cc(O)cc(O)c1 | 4.47 µM [falling, full curve] | – |
| C=CCn1c(SCc2c(C)noc2C)nc2ccccc2c1=O | 20.6 µM [rising, single point] | 18.4 µM [falling, partial curve] |
| Cc1cccc(NC(=O)[C@H](C)NC(=O)[C@@H]2Cc3ccccc3CN2C(=O)OC(C)(C)C)c1 | 35.5 µM [falling, single point] | – |
| CCC1N=C(SC)NC(C)=C1C(=O)c1ccccc1 (stereo not drawn) | 0.316 µM [rising, full curve, poor fit] | – |
| CCCCN(C)C(=O)c1cn(CC)c2ccc(S(=O)(=O)N(C)C)cc2c1=O | 6.51 µM [rising, single point] | – |
| Cc1cc(N/C=C\C(=O)c2ccc(Cl)c(Cl)c2)no1 | 3.98 µM [rising, full curve] | – |
| Nc1ccc(-c2nc3ccccc3o2)cc1 | 11.2 µM [falling, single point] | – |
| CCOC(=O)C1=C(C(F)(F)F)Nc2ncnn2C1c1cc(OC)ccc1OC (stereo not drawn) | 14.6 µM [rising, partial curve, poor fit] | – |
| N#Cc1ccc(C(=O)Nn2cnnc2)cc1 | 3.55 µM [rising, partial curve, poor fit] | – |

| SMILES | AC50 [1] | AC50 [2] |
| --- | --- | --- |
| COC(=O)c1ccc(C2C=C(c3ccc(Cl)cc3)Nc3nc4ccccc4n32)cc1 (stereo not drawn) | 7.08 µM [falling, full curve] | – |
| COCCOC(=O)C1=C(C)OC(N)=C(C#N)C1c1cc2cccc(C)c2nc1Cl (stereo not drawn) | 3.55 µM [falling, partial curve, poor fit] | 2.82 µM [falling, single point] |
| Oc1ccc(-c2onc(C(F)(F)F)c2-c2cscn2)c(O)c1 | 20.6 µM [falling, partial curve, poor fit] | – |
| COc1ccc(C2=C/C(=C\c3ccccc3OC(C)=O)C(=O)O2)cc1 | 6.31 µM [rising, single point] | – |
| COc1ccccc1C(=O)NNC(=O)C(=O)NCc1ccccc1 | 10 µM [falling, partial curve] | – |
| CCOC(=O)N1CCC(N(CCN(C)C)C(=S)Nc2cccc(OC)c2)CC1 | 3.16 µM [falling, single point] | – |
| CC(/C=N/NC(=O)c1cc(-c2ccccc2)nc2ccccc12)=C\c1ccco1 | 8.2 µM [rising, partial curve] | 18.4 µM [falling, partial curve] |
| O=C1/C(=C\Nc2ccccc2)CCN1c1ncccn1 | 18.4 µM [falling, single point] | – |
| Cc1ccccc1C(=O)NC(NCC1CCCO1)C(Cl)(Cl)Cl (stereo not drawn) | 8.91 µM [falling, partial curve, poor fit] | – |
| COc1cc(CCC(=O)N2CCN(c3ccc(N4CCOCC4)nn3)CC2)cc(OC)c1OC | 4.11 µM [falling, single point] | – |
| O=c1[nH]c(CSc2ncn[nH]2)nc2ccccc12 | 15.8 µM [rising, single point] | – |
| CC1CN(C(=O)c2cccc(COc3ccc(Br)cc3)c2)CC(C)O1 (stereo not drawn) | 2.31 µM [rising, partial curve] | – |
| O=C(C1CCN(Cc2ccccc2)CC1)N1CCN(C/C=C/c2ccccc2)CC1 | 0.13 µM [rising, full curve, poor fit] | – |
| COc1ccc(/C=N\NC(=O)c2ccccc2OC)cc1COc1c(F)c(F)c(F)c(F)c1F | 5.62 µM [falling, full curve] | – |
| C=CCOC(=O)Nc1ccc(Cl)cc1NC(=O)OCC=C | 25.9 µM [rising, single point] | – |
| O=C(NN1C(=O)c2ccccc2NC1c1ccc([N+](=O)[O-])o1)c1ccccc1 (stereo not drawn) | 35.5 µM [falling, single point] | – |
| O=C(NNC1=Nc2cc([N+](=O)[O-])ccc2OC1)c1ccccc1Cl | 15.8 µM [falling, single point] | – |
| CCOC(=O)C1CCCN(CC(=O)c2c[nH]c3ccc(C)cc23)C1 (stereo not drawn) | 5.62 µM [rising, single point] | – |
| CN1/C(=C\C(=O)Nc2ccc(F)cc2)C(C)(C)c2ccccc21 | 18.4 µM [falling, single point] | 29.1 µM [rising, single point] |
| CC(C)/C=N/NC(=O)c1cc(Br)ccc1O | 1.16 µM [falling, full curve] | – |
| O=C1CN(C(=O)c2cc3ccccc3o2)c2ccccc2N1 | 32.6 µM [falling, single point] | – |
| COc1ccccc1/C=C/CN1CCCC(CO)(Cc2cccc(Cl)c2)C1 (stereo not drawn) | 0.447 µM [falling, full curve, poor fit] | – |

| SMILES | AC50 [1] | AC50 [2] |
| --- | --- | --- |
| Cc1ccc(Nc2nc(-c3ccccc3)nc3ccccc23)cc1 | – | 15.8 µM [rising, partial curve, poor fit] |
| COc1cc(OC)cc(C(=O)O/N=C(\N)c2ccncc2)c1 | 4.61 µM [rising, partial curve] | – |
| NNC(=O)CSCc1nc(-c2ccccc2)cs1 | 0.316 µM [falling, full curve, poor fit] | – |
| COc1ccc(Cc2nc(-c3ccc(-n4cccc4)cc3)no2)cc1 | 3.26 µM [rising, partial curve, poor fit] | – |
| CC(=O)c1ccc(OCc2cc(C(=O)N(C)C(C)c3nccs3)no2)cc1 (stereo not drawn) | 14.1 µM [rising, partial curve, poor fit] | – |
| O=C(/C=C/c1cccs1)Nc1cccc(NC(=O)/C=C/c2cccs2)n1 | 9.2 µM [falling, partial curve] | – |
| O=C(Nc1nc(-c2cc(F)ccc2F)cs1)c1ccccn1 | 15.8 µM [rising, partial curve, poor fit] | – |
| CCOC(=O)c1nnn(-c2nonc2N)c1CNc1ccc(C)c(Br)c1 | 32.6 µM [falling, partial curve, poor fit] | – |
| C=CCOC(=O)C1=C(C)NC(SCC(=O)N(CC)CC)=C(C#N)C1c1ccccc1 (stereo not drawn) | 12.6 µM [falling, single point] | – |
| CCN1CCN(C(=O)Nc2ccc(Cc3ccc(NC(=O)N4CCN(CC)CC4)cc3)cc2)CC1 | 10 µM [falling, partial curve, poor fit] | – |
| COc1ccc(NC(=O)c2cc(-c3ccccc3)on2)cc1 | 1.26 µM [falling, full curve, poor fit] | – |
| CCOc1cc(NC(=O)c2ccco2)c(OCC)cc1NC(=O)Cc1cccc(OC)c1 | 0.184 µM [falling, full curve, poor fit] | – |
| O=C(NCCN1CCN(c2ccccc2F)CC1)c1ccc2nc3ccccc3c(=O)n2c1 | 0.398 µM [rising, full curve, poor fit] | – |
| COc1ccc(N/C=C/C(=O)C(F)(F)F)cc1 | 14.6 µM [rising, partial curve, poor fit] | – |
| Cn1c2ccccc2c2cc(C(=O)NNC(=O)CCl)sc21 | 11.2 µM [falling, partial curve] | – |
| O=C(CCc1ccccc1)N1CCN(c2ccccc2F)CC1 | 14.1 µM [rising, single point] | – |
| COc1ccc(OCc2ccc(C(=O)O)cc2)cc1 | 9.2 µM [falling, partial curve] | – |
| Cc1nnc(NCCc2ccccc2)c2ccccc12 | 15.8 µM [falling, single point] | – |
| O=C(/C=C/c1ccc(F)cc1)N1CCCN(C(=O)/C=C/c2ccc(F)cc2)CC1 | 7.31 µM [falling, partial curve, poor fit] | – |
| O=C(c1ccc(CS(=O)Cc2ccc(Cl)cc2)o1)N1CCN(c2cccc(Cl)c2)CC1 (stereo not drawn) | 17.8 µM [falling, single point] | – |

4 entries picked at random from those above:

| SMILES | AC50 [1] | AC50 [2] |
| --- | --- | --- |
| C=CCOC(=O)C1=C(C)NC(SCC(=O)N(CC)CC)=C(C#N)C1c1ccccc1 (stereo not drawn) | 12.6 µM [falling, single point] | – |
| O=C(CCc1ccccc1)N1CCN(c2ccccc2F)CC1 | 14.1 µM [rising, single point] | – |
| COc1ccc(OCc2ccc(C(=O)O)cc2)cc1 | 9.2 µM [falling, partial curve] | – |
| CCOc1cc(NC(=O)c2ccco2)c(OCC)cc1NC(=O)Cc1cccc(OC)c1 | 0.184 µM [falling, full curve, poor fit] | – |
